Reference: patent US4839465A (Sterling Drug Inc., priority 1987, dated 1989)
For some assays here: Some peptides are written in HELM: one residue between dots, names in brackets for other building blocks, links after the first $.

Assays:
[1] = Boc solid-phase peptide synthesis; chloromethylated styrene-divinylbenzene (1%) copolymer (Bio-Beads, 200-400 mesh, Bio-Rad); Boc-Phe-OBzl-resin, 0.68 mmol; dicyclohexylcarbodiimide with N-hydroxysuccinimide or 1-hydroxybenzotriazole; mi; conditions: whole synthesis, free base, phosphate, acetate or hydrochloride salts
[2] = coupling step, free base, phosphate, acetate or hydrochloride salts

Boc--Phe--tpi--Leu--Phe--NH2
step yield (peptide synthesis; [2]): 69.4% yield

Boc--Phe--trp--Leu--Met--NH2
step yield (peptide synthesis; [2]): 76% yield

Boc--Pro--trp--Phe--tpi--Leu--Phe--NH2
step yield (peptide synthesis; [2]): 23% yield

Boc--Pro--trp--Phe--trp--Leu--Phe--NH2
isolated yield (peptide synthesis; whole synthesis, free base, phosphate, acetate or hydrochloride salts): 13% yield

Boc--Pro--trp--Phe--trp--Leu--Phe--OBzl-resin
crude yield [1]: 96% yield

Boc--tpi--Phe--trp--Leu--Met--NH2
step yield (peptide synthesis; coupling step, free base, phosphate, acetate or hydrochloride salts, run 1): 57.5% yield
step yield (peptide synthesis; coupling step, free base, phosphate, acetate or hydrochloride salts, run 2): 93.1% yield

Boc--trp--Phe--trp--Leu--Met--NH2
step yield (peptide synthesis; [2]): 60% yield

Boc--trp--Phe--trp--Leu--Phe--NH2
step yield (peptide synthesis; [2]): 71% yield

H--Phe--tpi--Leu--Phe--NH2
step yield (peptide synthesis; late stage modification step, hydrochloride salt): 95% yield

PEPTIDE1{P.[dW].F.[D-Tpi].L.F.[am]}$$$$V2.0
step yield (peptide synthesis; late stage modification step, phosphate salt (1:1) acetic acid solvate (1:2)): 80% yield

PEPTIDE1{P.[dW].F.[dW].L.[am]}$$$$V2.0
step yield (peptide synthesis; late stage modification step, triacetate hydrate salt-solvate): 36% yield

PEPTIDE1{[D-Tpi].F.[dW].L.F.[am]}$$$$V2.0
step yield (peptide synthesis; late stage modification step, phosphate salt (1:1) hemihydrate methanol solvate (2:1)): 39% yield

PEPTIDE1{[D-Tpi].F.[dW].L.M.[am]}$$$$V2.0
step yield (peptide synthesis; late stage modification step, phosphate salt (1:1) hydrate (2:7)): 29% yield

PEPTIDE1{[Tpi].F.[dW].L.M.[am]}$$$$V2.0
step yield (peptide synthesis; late stage modification step, phosphate salt (1:1) acetic acid solvate (4:7)): 37.4% yield

PEPTIDE1{[dW].F.[dW].L.F.[am]}$$$$V2.0
step yield (peptide synthesis; late stage modification step, phosphate salt): 38% yield

PEPTIDE1{[dW].F.[dW].L.M.[am]}$$$$V2.0
step yield (peptide synthesis; late stage modification step, free base): 82% yield

Z--Pro--trp--Phe--trp--Leu--NH2
step yield (peptide synthesis; [2]): 71% yield

Z--Pro--trp--Phe--trp--NHNH2
step yield (peptide synthesis; late stage modification step, free base, phosphate, acetate or hydrochloride salts): 83% yield

Z--Pro--trp--Phe--trp--OCH3
step yield (peptide synthesis; [2]): 42% yield
